Laboratory results from publication PMC6331586, “Rapid determination of quaternary protein structures in complex biological samples” (Nature Communications, 2019).
Results are given in words; binding and its absence hold for the method and conditions named. Binding seen in cells or lysates may run through a third protein. Some entries that bind do so weakly or less than the wild type.

Protein sequences, listed by entry. Tags and fused reporters are not part of them. Residues count along the entry.
UniProt P04003, residues 49-597: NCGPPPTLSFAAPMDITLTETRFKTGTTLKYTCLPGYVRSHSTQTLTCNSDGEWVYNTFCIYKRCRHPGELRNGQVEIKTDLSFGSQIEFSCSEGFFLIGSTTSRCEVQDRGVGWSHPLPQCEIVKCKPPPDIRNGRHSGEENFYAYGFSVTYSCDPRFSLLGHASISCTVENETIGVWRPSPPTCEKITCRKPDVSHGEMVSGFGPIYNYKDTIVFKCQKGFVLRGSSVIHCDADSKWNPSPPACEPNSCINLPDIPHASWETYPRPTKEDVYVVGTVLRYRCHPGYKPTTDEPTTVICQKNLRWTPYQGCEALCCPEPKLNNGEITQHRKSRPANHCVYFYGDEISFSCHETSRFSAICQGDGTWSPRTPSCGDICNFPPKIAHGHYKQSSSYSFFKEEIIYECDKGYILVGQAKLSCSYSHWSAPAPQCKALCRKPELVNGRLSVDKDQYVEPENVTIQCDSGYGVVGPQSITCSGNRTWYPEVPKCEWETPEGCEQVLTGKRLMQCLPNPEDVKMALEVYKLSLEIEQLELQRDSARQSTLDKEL

Target: T1, M1 protein (amino acids 42–484), recombinant (S. pyogenes) (UniProt Q99XV0)
T1 sequence: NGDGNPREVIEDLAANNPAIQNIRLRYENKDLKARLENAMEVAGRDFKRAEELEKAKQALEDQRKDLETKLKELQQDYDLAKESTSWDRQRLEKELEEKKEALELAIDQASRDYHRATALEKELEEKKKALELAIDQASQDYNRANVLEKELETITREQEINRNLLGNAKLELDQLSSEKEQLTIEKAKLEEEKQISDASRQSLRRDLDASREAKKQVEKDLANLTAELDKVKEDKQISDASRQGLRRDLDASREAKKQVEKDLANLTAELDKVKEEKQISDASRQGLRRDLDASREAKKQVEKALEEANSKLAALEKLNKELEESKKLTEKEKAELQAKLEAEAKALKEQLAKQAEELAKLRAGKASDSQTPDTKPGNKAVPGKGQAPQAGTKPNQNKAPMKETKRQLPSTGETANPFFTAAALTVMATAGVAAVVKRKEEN
Test: cross-linking; additional TX-MS experiment with commercial C4BP; details in Supplementary Note 8 (not shown)

C4b-binding protein (from UniProt P04003 49-597)
binding: binds
